In PMC7904744:
Construct, isoform or probe ends are uncertain for at least one entry. For some of these results: A negative result means that nothing was seen under these conditions. For some of these results: At least one verdict rests on a figure or table, not on a statement of the authors. For some of these results: The comparison behind a weaker result is the experiment's own reference, which may not be listed here.

Sequences of proteins named here, by UniProt entry; tags and fusion partners are left off. Residues count along the entry.
UniProt Q15717, whole entry D226A: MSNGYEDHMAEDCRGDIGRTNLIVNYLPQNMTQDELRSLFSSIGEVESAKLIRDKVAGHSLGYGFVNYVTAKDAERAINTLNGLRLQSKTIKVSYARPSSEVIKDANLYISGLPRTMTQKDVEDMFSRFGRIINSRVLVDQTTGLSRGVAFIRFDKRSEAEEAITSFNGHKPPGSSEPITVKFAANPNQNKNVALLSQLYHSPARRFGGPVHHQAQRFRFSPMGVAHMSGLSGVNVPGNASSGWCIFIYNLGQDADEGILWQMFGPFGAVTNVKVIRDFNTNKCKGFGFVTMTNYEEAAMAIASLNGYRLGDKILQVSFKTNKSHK
UniProt Q15717, 106-186: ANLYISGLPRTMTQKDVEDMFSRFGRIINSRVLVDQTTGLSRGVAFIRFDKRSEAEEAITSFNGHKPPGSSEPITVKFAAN
UniProt Q15717, whole entry: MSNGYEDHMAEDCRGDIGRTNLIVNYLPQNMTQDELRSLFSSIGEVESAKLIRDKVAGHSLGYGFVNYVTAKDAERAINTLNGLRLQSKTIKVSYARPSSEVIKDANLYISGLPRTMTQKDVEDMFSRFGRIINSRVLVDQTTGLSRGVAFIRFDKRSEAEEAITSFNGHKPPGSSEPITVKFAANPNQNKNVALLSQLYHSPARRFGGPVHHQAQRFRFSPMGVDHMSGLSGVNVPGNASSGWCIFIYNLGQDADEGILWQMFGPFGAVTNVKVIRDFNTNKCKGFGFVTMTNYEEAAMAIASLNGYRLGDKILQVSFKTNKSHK
UniProt Q15717, 20-186, stated change not applied: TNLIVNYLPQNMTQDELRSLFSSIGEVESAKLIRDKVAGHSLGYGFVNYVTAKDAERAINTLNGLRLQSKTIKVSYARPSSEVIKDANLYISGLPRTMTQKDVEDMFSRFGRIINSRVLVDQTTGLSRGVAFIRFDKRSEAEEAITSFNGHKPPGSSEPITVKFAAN
UniProt Q15717, 244-322: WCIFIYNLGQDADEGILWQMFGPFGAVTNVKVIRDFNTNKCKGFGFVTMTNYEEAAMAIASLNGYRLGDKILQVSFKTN

Tests used:
Test in all cases: EMSA
[1] = molecular target: GST-HuR D226A incubated with PARP1 (UniProt Q15717); conditions: after PARP1 reaction, monomer and oligomer bands reduced vs PARylated WT; EMSA: 3 mM MgCl2, 40 mM KCl, 5% glycerol, 2 mM DTT, 2 ug tRNA, 5 nM RNA, 40 min room temperature; pH not stated; 6% native acrylamide gel; recombinant protein; protein details: GST; label: 5' biotin
[2] = molecular target: GST-HuR-RRM2 (UniProt Q15717); conditions: not effectively shifted; EMSA: 3 mM MgCl2, 40 mM KCl, 5% glycerol, 2 mM DTT, 2 ug tRNA, 5 nM RNA, 40 min room temperature; pH not stated; 6% native acrylamide gel; recombinant protein; protein details: GST; label: 5' biotin
[3] = molecular target: GST-HuR delta RRM3 (UniProt Q15717); conditions: weak retarding complexes; EMSA: 3 mM MgCl2, 40 mM KCl, 5% glycerol, 2 mM DTT, 2 ug tRNA, 5 nM RNA, 40 min room temperature; pH not stated; 6% native acrylamide gel; recombinant protein; protein details: GST; label: 5' biotin
[4] = molecular target: GST-HuR-HNS (UniProt Q15717); conditions: not effectively shifted; EMSA: 3 mM MgCl2, 40 mM KCl, 5% glycerol, 2 mM DTT, 2 ug tRNA, 5 nM RNA, 40 min room temperature; pH not stated; 6% native acrylamide gel; recombinant protein; protein details: GST; label: 5' biotin
[5] = molecular target: PARylated GST-HuR (UniProt Q15717); conditions: PARylated, binding markedly enhanced vs unmodified, weakened by Olaparib; EMSA: 3 mM MgCl2, 40 mM KCl, 5% glycerol, 2 mM DTT, 2 ug tRNA, 5 nM RNA, 40 min room temperature; pH not stated; 6% native acrylamide gel; recombinant protein; protein details: GST; label: 5' biotin
[6] = molecular target: GST-HuR RRM1+RRM2 (delta HNS+RRM3) (UniProt Q15717); conditions: no multiple shifted bands, monomer association also impaired; EMSA: 3 mM MgCl2, 40 mM KCl, 5% glycerol, 2 mM DTT, 2 ug tRNA, 5 nM RNA, 40 min room temperature; pH not stated; 6% native acrylamide gel; recombinant protein; protein details: GST; label: 5' biotin
[7] = molecular target: GST-HuR D226A (UniProt Q15717); conditions: unmodified, monomer band as WT, oligomer bands weakened; EMSA: 3 mM MgCl2, 40 mM KCl, 5% glycerol, 2 mM DTT, 2 ug tRNA, 5 nM RNA, 40 min room temperature; pH not stated; 6% native acrylamide gel; recombinant protein; protein details: GST; label: 5' biotin
[8] = molecular target: GST-HuR-RRM3 (UniProt Q15717); conditions: not effectively shifted; EMSA: 3 mM MgCl2, 40 mM KCl, 5% glycerol, 2 mM DTT, 2 ug tRNA, 5 nM RNA, 40 min room temperature; pH not stated; 6% native acrylamide gel; recombinant protein; protein details: GST; label: 5' biotin

Sequence	binding result [1]	binding result [2]	binding result [3]	binding result [4]	binding result [5]	binding result [6]	binding result [7]	binding result [8]
AUUUAUUUAUUUAUUUAUUUAUUUA [AU-rich RNA oligo (tandem ARE repeat)]	binds more weakly	no binding	binds more weakly	no binding	binds	binds more weakly	binds more weakly	no binding
CUAUGUAUUUAUUUAUUUAUUAAUU [Cxcl2 ARE RNA oligo]	–	no binding	binds more weakly	no binding	–	binds more weakly	–	no binding
